PubChem BioAssay AID1259308 | NCATS | 2017

Screen: 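Genes whose loss raises luciferase production in HEK293 cells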 (primary screen)
Cell system: human HEK293 embryonic kidney cells stably expressing firefly luciferase (HEK-CMV-Luc2-Hygro)
Reagents: single siRNA against human genes, 0.8 pmol siRNA per well
Timing: 72 h
Measurement: 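Luciferase light (ONE-Glo) measured on one replicate plate set and viability (CellTiter-Glo) on the other, scaled to a negative control siRNA, with robust z-scores and luciferase per cell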
Scale: total luciferase, z-score and total luciferase, % of control: higher = more reporter protein produced; luciferase per cell, z-score: higher = more reporter output per viable cell; viable cells, % of control: higher = more viable cells
Hit rule: 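Active when the median/MAD z-score for overall luciferase is greater than 3; a gene was taken forward for validation with new siRNAs if at least two of its three siRNAs passed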
Calls: active = raised luciferase; inactive = no rise
The whole screen tested about 59,000 reagents; shown is a part drawn at random. In the full data, about 1,510 (2.6%) are marked active. 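Calls use total luciferase alone and ignore viability, so some active siRNAs may act by altering cell number.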 Entries without a mark were called inactive. Reagents against one gene are numbered here.

The opening 4 records as a preview:
| Target gene | reagent | total luciferase, z-score | total luciferase, % of control | luciferase per cell, z-score | viable cells, % of control |
| --- | --- | --- | --- | --- | --- |
| SV2B (GeneID 9899) | 1 | -0.397 | 74 | 0.564 | 71.3 |
| SV2B (GeneID 9899) | 2 | -1.46 | 52.9 | -0.956 | 76.1 |
| SV2B (GeneID 9899) | 3 | 0.404 | 89.9 | 0.203 | 95.2 |
| MPV17L (GeneID 255027) | 1 | -0.205 | 77.8 | -1.03 | 114 |

The listing, from the start:
| Target gene | reagent | total luciferase, z-score | total luciferase, % of control | luciferase per cell, z-score | viable cells, % of control |
| --- | --- | --- | --- | --- | --- |
| SV2B (GeneID 9899) | 1 | -0.397 | 74 | 0.564 | 71.3 |
| SV2B (GeneID 9899) | 2 | -1.46 | 52.9 | -0.956 | 76.1 |
| SV2B (GeneID 9899) | 3 | 0.404 | 89.9 | 0.203 | 95.2 |
| MPV17L (GeneID 255027) | 1 | -0.205 | 77.8 | -1.03 | 114 |
| MPV17L (GeneID 255027) | 2 | -0.373 | 74.5 | -0.606 | 97.6 |
| MPV17L (GeneID 255027) | 3 | 1.93 | 120 | 1.91 | 81.3 |
| HOXB3 (GeneID 3213) | 1 | -1.53 | 51.5 | -1.85 | 93.7 |
| HOXB3 (GeneID 3213) | 2 | -1.8 | 46.1 | -1.86 | 84.1 |
| HOXB3 (GeneID 3213) | 3 | 0.731 | 96.4 | 0.407 | 96.8 |
| TRAF2 (GeneID 7186) | 1 | 0.194 | 85.7 | -0.332 | 105 |
| TRAF2 (GeneID 7186) | 2 | 0.916 | 100 | 0.672 | 93.7 |
| TRAF2 (GeneID 7186) | 3 | -0.952 | 62.9 | -0.767 | 86.1 |
| ERICH2 (GeneID 285141) | 1 | -0.415 | 73.6 | -0.559 | 95.3 |
| ERICH2 (GeneID 285141) | 2 | -0.683 | 68.3 | -0.69 | 91.5 |
| ERICH2 (GeneID 285141) | 3 | -0.805 | 65.9 | -0.842 | 91.9 |
| ERICH2 (GeneID 285141) | 4 | -0.496 | 72 | 0.959 | 62.5 |
| ERICH2 (GeneID 285141) | 5 | 0.695 | 95.7 | 2.25 | 59.1 |
| ERICH2 (GeneID 285141) | 6 | 1.51 | 112 | 1.44 | 85.7 |
| KCNJ1 (GeneID 3758) | 1 | -0.246 | 77 | -0.595 | 101 |
| KCNJ1 (GeneID 3758) | 2 | 1.18 | 105 | 1.18 | 86.3 |
| KCNJ1 (GeneID 3758) | 3 | 1.11 | 104 | 1.25 | 83.7 |
| MIGA2 (GeneID 84895) | 1 | -0.692 | 68.1 | -0.188 | 80 |
| MIGA2 (GeneID 84895) | 2 | 0.674 | 95.3 | 0.816 | 85.9 |
| MIGA2 (GeneID 84895) | 3 | -0.355 | 74.8 | -0.479 | 94.9 |
| NUP54 (GeneID 53371) | 1 | -1.72 | 47.6 | -1.4 | 76.9 |
| NUP54 (GeneID 53371) | 2 | 0.558 | 93 | 0.152 | 99.8 |
| NUP54 (GeneID 53371) | 3 | -1.19 | 58.2 | -0.53 | 74.8 |
| AZI2 (GeneID 64343) | 1 | -1.46 | 52.9 | -1.66 | 91.6 |
| AZI2 (GeneID 64343) | 2 | -0.985 | 62.3 | -0.876 | 87.7 |
| AZI2 (GeneID 64343) | 3 | 1.25 | 107 | 1.32 | 84.2 |
| TEX44 (GeneID 165100) | 1 | -1.51 | 51.8 | -0.376 | 64 |
| TEX44 (GeneID 165100) | 2 | -1.14 | 59.3 | -0.882 | 83.6 |
| TEX44 (GeneID 165100) | 3 | -2.5 | 32.1 | -0.336 | 39.2 |
| PSMB7 (GeneID 5695) | 1 | 0.562 | 93.1 | 0.508 | 91 |
| PSMB7 (GeneID 5695) | 2 | 0.287 | 87.6 | 0.884 | 77.6 |
| PSMB7 (GeneID 5695) | 3 | -0.888 | 64.2 | 0.676 | 60.1 |
| ATG4A (GeneID 115201) | 1 | -0.208 | 77.8 | 0.295 | 80.4 |
| ATG4A (GeneID 115201) | 2 | -0.934 | 63.3 | -0.918 | 90.1 |
| ATG4A (GeneID 115201) | 3 | -0.773 | 66.5 | -1.32 | 105 |
| OR4F29 (GeneID 729759) | 1 | 0.099 | 83.9 | 0.192 | 89.1 |
| OR4F29 (GeneID 729759) | 2 | 0.93 | 100 | 0.447 | 99.7 |
| OR4F29 (GeneID 729759) | 3 | -2.29 | 36.3 | -1.76 | 64.5 |
| XAGE2 (GeneID 9502) | 1 | 1.18 | 105 | 1.63 | 76.6 |
| XAGE2 (GeneID 9502) | 2 | 3.66 (active) | 155 | 5.06 | 45.6 |
| XAGE2 (GeneID 9502) | 3 | -1.31 | 55.9 | -2.47 | 120 |
| RABGEF1 (GeneID 27342) | 1 | -0.3 | 75.9 | -0.864 | 106 |
| RABGEF1 (GeneID 27342) | 2 | 2.53 | 132 | 1.71 | 94.2 |
| RABGEF1 (GeneID 27342) | 3 | 0.401 | 89.9 | 0.181 | 95.7 |
| L3MBTL1 (GeneID 26013) | 1 | 0.756 | 96.9 | 0.766 | 88.5 |
| L3MBTL1 (GeneID 26013) | 2 | -1.39 | 54.2 | -1.74 | 95.7 |
| L3MBTL1 (GeneID 26013) | 3 | 0.717 | 96.1 | 0.582 | 92.2 |
| TACR2 (GeneID 6865) | 1 | 0.773 | 97.3 | 0.17 | 104 |
| TACR2 (GeneID 6865) | 2 | -0.519 | 71.6 | -1.37 | 115 |
| TACR2 (GeneID 6865) | 3 | 1.66 | 115 | 0.66 | 108 |
| CDK5 (GeneID 1020) | 1 | -0.0659 | 80.6 | 1.87 | 55 |
| CDK5 (GeneID 1020) | 2 | 1.57 | 113 | 1.13 | 93.8 |
| CDK5 (GeneID 1020) | 3 | -1.72 | 47.6 | -1.91 | 88.1 |
